Source: publication PMC8050389
These are yes or no findings as the source states them, for the method shown. In cells and extracts the contact can be indirect. Some entries that bind do so weakly or less than the wild type. For some assays here: Sequences can lack the tags named with a protein. One block for each molecule: values may come before it.

The chains behind the UniProt entries cited, without tags or fusion partners.
UniProt Q13485: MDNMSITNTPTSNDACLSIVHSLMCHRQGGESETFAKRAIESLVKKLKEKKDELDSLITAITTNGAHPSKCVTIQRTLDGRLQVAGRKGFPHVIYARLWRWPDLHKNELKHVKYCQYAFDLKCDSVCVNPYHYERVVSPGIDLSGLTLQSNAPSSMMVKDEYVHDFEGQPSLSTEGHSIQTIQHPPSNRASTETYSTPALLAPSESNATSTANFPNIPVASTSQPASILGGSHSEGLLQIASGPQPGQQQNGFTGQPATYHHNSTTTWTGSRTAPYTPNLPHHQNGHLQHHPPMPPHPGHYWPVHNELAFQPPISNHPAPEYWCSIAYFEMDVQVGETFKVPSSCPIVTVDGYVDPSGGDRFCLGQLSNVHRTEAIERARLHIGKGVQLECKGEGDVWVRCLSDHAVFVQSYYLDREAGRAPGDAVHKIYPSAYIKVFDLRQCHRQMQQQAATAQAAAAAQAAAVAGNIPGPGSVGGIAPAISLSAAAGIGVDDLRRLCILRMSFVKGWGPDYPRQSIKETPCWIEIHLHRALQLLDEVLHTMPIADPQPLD
UniProt Q15797: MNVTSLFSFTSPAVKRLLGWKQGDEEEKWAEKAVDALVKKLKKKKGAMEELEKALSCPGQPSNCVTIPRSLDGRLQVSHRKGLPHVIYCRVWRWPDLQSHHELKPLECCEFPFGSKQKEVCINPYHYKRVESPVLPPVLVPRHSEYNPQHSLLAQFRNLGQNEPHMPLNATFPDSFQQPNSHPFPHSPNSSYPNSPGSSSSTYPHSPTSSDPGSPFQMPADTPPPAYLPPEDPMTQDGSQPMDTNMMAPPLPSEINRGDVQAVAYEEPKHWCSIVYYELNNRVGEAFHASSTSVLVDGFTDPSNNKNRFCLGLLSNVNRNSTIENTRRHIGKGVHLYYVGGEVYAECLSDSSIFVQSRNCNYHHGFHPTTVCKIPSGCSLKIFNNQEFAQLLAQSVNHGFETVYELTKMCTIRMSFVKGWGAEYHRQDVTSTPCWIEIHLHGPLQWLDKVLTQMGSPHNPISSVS

Legend:
[1] = target: Smad4, endogenous in HaCaT cells (human (endogenous in HaCaT)) (UniProt Q13485); test: co-IP; endogenous Smad1 and Smad4 in BMP4-treated HaCaT cells transfected with increasing amounts of FLAG-Smad6 WT or R81A; IP with anti-Smad4 antibody (anti-GFP as control), blot for pSmad1
[2] = target: T1, FLAG-tagged Smad6 R81A mutant (in HaCaT cells) (UniProt O35182); test: co-IP; HaCaT cells transfected with FLAG–Smad6 WT or R81A, BMP4 for 60 min; IP with anti-FLAG antibody (anti-GFP as control), blot for Smad1 and pSmad1; IP lysis buffer with 150-mM NaCl, 1% NP-40
T1 sequence: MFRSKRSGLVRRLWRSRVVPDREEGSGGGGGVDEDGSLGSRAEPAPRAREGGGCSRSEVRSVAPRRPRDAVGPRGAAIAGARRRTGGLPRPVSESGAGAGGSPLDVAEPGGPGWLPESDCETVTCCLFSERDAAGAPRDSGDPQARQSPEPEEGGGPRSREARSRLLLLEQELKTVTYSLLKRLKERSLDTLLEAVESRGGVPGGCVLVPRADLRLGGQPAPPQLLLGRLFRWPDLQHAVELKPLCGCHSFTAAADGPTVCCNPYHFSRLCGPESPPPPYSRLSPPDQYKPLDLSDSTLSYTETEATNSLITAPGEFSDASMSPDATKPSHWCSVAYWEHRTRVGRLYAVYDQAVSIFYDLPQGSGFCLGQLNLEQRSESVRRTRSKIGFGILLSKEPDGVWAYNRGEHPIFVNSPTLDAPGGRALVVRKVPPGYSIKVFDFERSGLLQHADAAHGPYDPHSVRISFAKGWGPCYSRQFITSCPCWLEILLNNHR

[3] = target: MYC-tagged Smad4 (UniProt Q13485); test: co-IP; 293T cells transfected with MYC-Smad4, FLAG-Smad1, HA-BMPRIAca and FLAG-Smad6 WT, R81A or R81K; IP with anti-MYC antibody, blot for Smad1 and pSmad1
[4] = target: T2, FLAG-tagged Smad6^331–495 (MH2 domain, C-terminal residues) (UniProt O35182); test: co-IP; HA-Smad6^1–330 (WT or R81A) coexpressed with FLAG-Smad6^331–495 in 293T cells, also in 293T cells stably expressing control shRNA or shRNA targeting PRMT1
T2 sequence: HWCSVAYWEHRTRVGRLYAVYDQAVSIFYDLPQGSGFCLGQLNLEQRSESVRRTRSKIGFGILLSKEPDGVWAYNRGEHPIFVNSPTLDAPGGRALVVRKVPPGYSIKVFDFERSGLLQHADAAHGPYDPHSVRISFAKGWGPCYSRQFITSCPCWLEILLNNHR

Molecule: Smad1, endogenous in HaCaT cells (from UniProt Q15797 1-465)
- binding [1]: binds
- binding [2]: no binding

Molecule: FLAG-tagged Smad1, phosphorylated (from 293T cells coexpressing BMP receptors) (from UniProt Q15797 1-465)
- binding [3]: binds

Second part, the molecule after the results:

- binding [4]: binds
B1: HA-tagged Smad6^1–330 WT (MH1 domain, N-terminal 330 amino acids) (domain or fragment, UniProt O35182 1-330)
chain: MFRSKRSGLVRRLWRSRVVPDREEGSGGGGGVDEDGSLGSRAEPAPRAREGGGCSRSEVRSVAPRRPRDAVGPRGAAIAGRRRRTGGLPRPVSESGAGAGGSPLDVAEPGGPGWLPESDCETVTCCLFSERDAAGAPRDSGDPQARQSPEPEEGGGPRSREARSRLLLLEQELKTVTYSLLKRLKERSLDTLLEAVESRGGVPGGCVLVPRADLRLGGQPAPPQLLLGRLFRWPDLQHAVELKPLCGCHSFTAAADGPTVCCNPYHFSRLCGPESPPPPYSRLSPPDQYKPLDLSDSTLSYTETEATNSLITAPGEFSDASMSPDATKPS

- binding [4]: binds
B2: HA-tagged Smad6^1–330 R81A mutant (domain or fragment, UniProt O35182 1-330)
chain: MFRSKRSGLVRRLWRSRVVPDREEGSGGGGGVDEDGSLGSRAEPAPRAREGGGCSRSEVRSVAPRRPRDAVGPRGAAIAGARRRTGGLPRPVSESGAGAGGSPLDVAEPGGPGWLPESDCETVTCCLFSERDAAGAPRDSGDPQARQSPEPEEGGGPRSREARSRLLLLEQELKTVTYSLLKRLKERSLDTLLEAVESRGGVPGGCVLVPRADLRLGGQPAPPQLLLGRLFRWPDLQHAVELKPLCGCHSFTAAADGPTVCCNPYHFSRLCGPESPPPPYSRLSPPDQYKPLDLSDSTLSYTETEATNSLITAPGEFSDASMSPDATKPS
